Values quoted from earlier work as cited in US20200246485A1, “METHOD FOR GENERATING A DIHYDROMYRICETIN (DHM) FORMULATION” (82 LABS INC, priority 2019, published 2020).

Assays:
[1] = design: key: ability to form inclusion complexes, as indicated by a “+”; conditions: guest substance with β-CD; cited from earlier work
[2] = design: key: ability to form inclusion complexes, as indicated by a “+”; conditions: guest substance with γ-CD; cited from earlier work
[3] = design: key: ability to form inclusion complexes, as indicated by a “+”; conditions: guest substance with α-CD; cited from earlier work

SMILES	ability to form inclusion complexes with β-CD [1]	ability to form inclusion complexes with γ-CD [2]	ability to form inclusion complexes with α-CD [3]
c1ccc2ccccc2c1 [Naphthalene]	+	+	
CCCC(=O)O [Butyric acid]	+		+
c1ccc2cc3ccccc3cc2c1 [Anthracene]		+	
CCC(=O)O [Propionic acid]			+
C1CCCCC1 [Cyclohexane]	+	+	+
[Xe] [Xenon]			+
